According to US20250297004A1, “NECTIN-4 BINDING AGENTS” (INNATE PHARMA, priority 2022, published 2025):
No constants are given. Whether binding was seen depends on the method and setting. Some results given as binding are weak or reduced against the parent protein; the word gives no strength.

T1: human Nectin-4 expressed on cells (human, UniProt Q96NY8 32-510)
T1 sequence: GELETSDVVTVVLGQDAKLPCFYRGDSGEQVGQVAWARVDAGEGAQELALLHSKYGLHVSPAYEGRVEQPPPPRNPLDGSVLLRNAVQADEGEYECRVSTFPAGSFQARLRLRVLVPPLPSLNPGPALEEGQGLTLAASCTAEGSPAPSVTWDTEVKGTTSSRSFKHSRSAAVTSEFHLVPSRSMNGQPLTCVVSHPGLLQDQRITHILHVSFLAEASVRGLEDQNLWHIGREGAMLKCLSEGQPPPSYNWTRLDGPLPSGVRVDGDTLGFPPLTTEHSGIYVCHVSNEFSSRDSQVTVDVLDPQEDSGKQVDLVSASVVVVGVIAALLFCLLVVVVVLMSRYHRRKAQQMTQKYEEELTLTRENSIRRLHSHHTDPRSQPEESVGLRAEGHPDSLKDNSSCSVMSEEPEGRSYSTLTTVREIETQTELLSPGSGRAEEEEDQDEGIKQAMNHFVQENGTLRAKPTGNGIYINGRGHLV


Target: T1, human Nectin-4 expressed on cells
Experiment: flow cytometry on SUM190 cells

Row | Binder | binding
1 | H4L1 (antibody, human IgG1, V domains shown, human IgG1 isotype) VH: QVQLVQSGAEVKKPGASVKVSCKASGYIFTSYWMHWVKQAPGQGLEWMGEIDPSDSYTNYNQKFKGRVTMTLDKSTSTTYMELSSLRSEDTAVYYCARGYGNYGDYWGQGTLVTVSS VL: DVVMTQSPLSLPVTPGEPASISCRSSKSLLHSNGITYLYWYLQKPGQSPQLLIYQMSNLASGVPDRFSSSGSGTDFTLKISRVEAEDVGVYYCAQNLELPWTFGGGTKVEIK | binds
2 | H0L0 (antibody, human IgG1, V domains shown, human IgG1 isotype; also called HOLO; humanized 5E7 variant H0L0) VH: QVQLVQSGAEVKKPGASVKVSCKASGYTFTSYWMHWVRQAPGQGLEWMGEIDPSDSYTNYNQKFKGRVTMTRDTSTSTVYMELSSLRSEDTAVYYCARGYGNYGDYWGQGTLVTVSS VL: DIVMTQSPLSLPVTPGEPASISCRSSKSLLHSNGITYLYWYLQKPGQSPQLLIYQMSNLASGVPDRFSGSGSGTDFTLKISRVEAEDVGVYYCAQNLELPWTFGGGTKVEIK | binds
3 | H1L0 (antibody, human IgG1, V domains shown, human IgG1 isotype) VH: QVQLVQSGAEVKKPGASVKVSCKASGYTFTSYWMHWVRQAPGQGLEWMGEIDPSDSYTNYNQKFKGRVTMTLDTSTSTTYMELSSLRSEDTAVYYCARGYGNYGDYWGQGTLVTVSS VL: DIVMTQSPLSLPVTPGEPASISCRSSKSLLHSNGITYLYWYLQKPGQSPQLLIYQMSNLASGVPDRFSGSGSGTDFTLKISRVEAEDVGVYYCAQNLELPWTFGGGTKVEIK | binds
4 | H2L0 (antibody, human IgG1, V domains shown, human IgG1 isotype) VH: QVQLVQSGAEVKKPGASVKVSCKASGYTFTSYWMHWVRQAPGQGLEWMGEIDPSDSYTNYNQKFKGRVTMTLDKSTSTTYMELSSLRSEDTAVYYCARGYGNYGDYWGQGTLVTVSS VL: DIVMTQSPLSLPVTPGEPASISCRSSKSLLHSNGITYLYWYLQKPGQSPQLLIYQMSNLASGVPDRFSGSGSGTDFTLKISRVEAEDVGVYYCAQNLELPWTFGGGTKVEIK | binds
5 | H3L0 (antibody, human IgG1, V domains shown, human IgG1 isotype) VH: QVQLVQSGAEVKKPGASVKVSCKASGYIFTSYWMHWVRQAPGQGLEWMGEIDPSDSYTNYNQKFKGRVTMTLDKSTSTTYMELSSLRSEDTAVYYCARGYGNYGDYWGQGTLVTVSS VL: DIVMTQSPLSLPVTPGEPASISCRSSKSLLHSNGITYLYWYLQKPGQSPQLLIYQMSNLASGVPDRFSGSGSGTDFTLKISRVEAEDVGVYYCAQNLELPWTFGGGTKVEIK | binds
6 | H3L1 (antibody, human IgG1, V domains shown, human IgG1 isotype) VH: QVQLVQSGAEVKKPGASVKVSCKASGYIFTSYWMHWVRQAPGQGLEWMGEIDPSDSYTNYNQKFKGRVTMTLDKSTSTTYMELSSLRSEDTAVYYCARGYGNYGDYWGQGTLVTVSS VL: DVVMTQSPLSLPVTPGEPASISCRSSKSLLHSNGITYLYWYLQKPGQSPQLLIYQMSNLASGVPDRFSSSGSGTDFTLKISRVEAEDVGVYYCAQNLELPWTFGGGTKVEIK | binds
7 | H3L2 (antibody, human IgG1, V domains shown, human IgG1 isotype) VH: QVQLVQSGAEVKKPGASVKVSCKASGYIFTSYWMHWVRQAPGQGLEWMGEIDPSDSYTNYNQKFKGRVTMTLDKSTSTTYMELSSLRSEDTAVYYCARGYGNYGDYWGQGTLVTVSS VL: DVVMTQSPLSNPVTPGEPASISCRSSKSLLHSNGITYLYWYLQKPGQSPQLLIYQMSNLASGVPDRFSSSGSGTDFTLKISRVEAEDVGVYYCAQNLELPWTFGGGTKVEIK | binds
8 | H3L3 (antibody, human IgG1, V domains shown, human IgG1 isotype) VH: QVQLVQSGAEVKKPGASVKVSCKASGYIFTSYWMHWVRQAPGQGLEWMGEIDPSDSYTNYNQKFKGRVTMTLDKSTSTTYMELSSLRSEDTAVYYCARGYGNYGDYWGQGTLVTVSS VL: DVVMTQSALSNPVTPGEPASISCRSSKSLLHSNGITYLYWYLQKPGQSPQLLIYQMSNLASGVPDRFSSSGSGTDFTLKISRVEAEDVGVYYCAQNLELPWTFGGGTKVEIK | binds
9 | H4L2 (antibody, human IgG1, V domains shown, human IgG1 isotype) VH: QVQLVQSGAEVKKPGASVKVSCKASGYIFTSYWMHWVKQAPGQGLEWMGEIDPSDSYTNYNQKFKGRVTMTLDKSTSTTYMELSSLRSEDTAVYYCARGYGNYGDYWGQGTLVTVSS VL: DVVMTQSPLSNPVTPGEPASISCRSSKSLLHSNGITYLYWYLQKPGQSPQLLIYQMSNLASGVPDRFSSSGSGTDFTLKISRVEAEDVGVYYCAQNLELPWTFGGGTKVEIK | binds
10 | H4L3 (antibody, human IgG1, V domains shown, human IgG1 isotype) VH: QVQLVQSGAEVKKPGASVKVSCKASGYIFTSYWMHWVKQAPGQGLEWMGEIDPSDSYTNYNQKFKGRVTMTLDKSTSTTYMELSSLRSEDTAVYYCARGYGNYGDYWGQGTLVTVSS VL: DVVMTQSALSNPVTPGEPASISCRSSKSLLHSNGITYLYWYLQKPGQSPQLLIYQMSNLASGVPDRFSSSGSGTDFTLKISRVEAEDVGVYYCAQNLELPWTFGGGTKVEIK | binds
11 | H5L1 (antibody, human IgG1, V domains shown, human IgG1 isotype) VH: QVQLVQSGAEVKKPGASVKVSCKASGYIFTSYWMHWVKQRPGQGLEWMGEIDPSDSYTNYNQKFKGRVTMTLDKSTSTTYMELSSLRSEDTAVYYCARGYGNYGDYWGQGTLVTVSS VL: DVVMTQSPLSLPVTPGEPASISCRSSKSLLHSNGITYLYWYLQKPGQSPQLLIYQMSNLASGVPDRFSSSGSGTDFTLKISRVEAEDVGVYYCAQNLELPWTFGGGTKVEIK | binds
12 | H5L2 (antibody, human IgG1, V domains shown, human IgG1 isotype) VH: QVQLVQSGAEVKKPGASVKVSCKASGYIFTSYWMHWVKQRPGQGLEWMGEIDPSDSYTNYNQKFKGRVTMTLDKSTSTTYMELSSLRSEDTAVYYCARGYGNYGDYWGQGTLVTVSS VL: DVVMTQSPLSNPVTPGEPASISCRSSKSLLHSNGITYLYWYLQKPGQSPQLLIYQMSNLASGVPDRFSSSGSGTDFTLKISRVEAEDVGVYYCAQNLELPWTFGGGTKVEIK | binds
13 | H6L1 (antibody, human IgG1, V domains shown, human IgG1 isotype) VH: QVQLVQSGAEVKKPGASVKVSCKASGYIFTSYWMHWVKQRPGQGLEWIGEIDPSDSYTNYNQKFKGRVTMTLDKSTSTTYMELSSLRSEDTAVYYCARGYGNYGDYWGQGTLVTVSS VL: DVVMTQSPLSLPVTPGEPASISCRSSKSLLHSNGITYLYWYLQKPGQSPQLLIYQMSNLASGVPDRFSSSGSGTDFTLKISRVEAEDVGVYYCAQNLELPWTFGGGTKVEIK | binds
14 | H6L2 (antibody, human IgG1, V domains shown, human IgG1 isotype) VH: QVQLVQSGAEVKKPGASVKVSCKASGYIFTSYWMHWVKQRPGQGLEWIGEIDPSDSYTNYNQKFKGRVTMTLDKSTSTTYMELSSLRSEDTAVYYCARGYGNYGDYWGQGTLVTVSS VL: DVVMTQSPLSNPVTPGEPASISCRSSKSLLHSNGITYLYWYLQKPGQSPQLLIYQMSNLASGVPDRFSSSGSGTDFTLKISRVEAEDVGVYYCAQNLELPWTFGGGTKVEIK | binds
15 | H6L3 (antibody, human IgG1, V domains shown, human IgG1 isotype) VH: QVQLVQSGAEVKKPGASVKVSCKASGYIFTSYWMHWVKQRPGQGLEWIGEIDPSDSYTNYNQKFKGRVTMTLDKSTSTTYMELSSLRSEDTAVYYCARGYGNYGDYWGQGTLVTVSS VL: DVVMTQSALSNPVTPGEPASISCRSSKSLLHSNGITYLYWYLQKPGQSPQLLIYQMSNLASGVPDRFSSSGSGTDFTLKISRVEAEDVGVYYCAQNLELPWTFGGGTKVEIK | binds
16 | H7L1 (antibody, human IgG1, V domains shown, human IgG1 isotype) VH: QVQLVQSGAEVKKPGASVKVSCKASGYIFTSYWMHWVKQRPGQGLEWIGEIDPSDSYTNYNQKFKGRVTLTLDKSTSTTYMELSSLRSEDTAVYYCARGYGNYGDYWGQGTLVTVSS VL: DVVMTQSPLSLPVTPGEPASISCRSSKSLLHSNGITYLYWYLQKPGQSPQLLIYQMSNLASGVPDRFSSSGSGTDFTLKISRVEAEDVGVYYCAQNLELPWTFGGGTKVEIK | binds
17 | H7L2 (antibody, human IgG1, V domains shown, human IgG1 isotype) VH: QVQLVQSGAEVKKPGASVKVSCKASGYIFTSYWMHWVKQRPGQGLEWIGEIDPSDSYTNYNQKFKGRVTLTLDKSTSTTYMELSSLRSEDTAVYYCARGYGNYGDYWGQGTLVTVSS VL: DVVMTQSPLSNPVTPGEPASISCRSSKSLLHSNGITYLYWYLQKPGQSPQLLIYQMSNLASGVPDRFSSSGSGTDFTLKISRVEAEDVGVYYCAQNLELPWTFGGGTKVEIK | binds
18 | H7L3 (antibody, human IgG1, V domains shown, human IgG1 isotype) VH: QVQLVQSGAEVKKPGASVKVSCKASGYIFTSYWMHWVKQRPGQGLEWIGEIDPSDSYTNYNQKFKGRVTLTLDKSTSTTYMELSSLRSEDTAVYYCARGYGNYGDYWGQGTLVTVSS VL: DVVMTQSALSNPVTPGEPASISCRSSKSLLHSNGITYLYWYLQKPGQSPQLLIYQMSNLASGVPDRFSSSGSGTDFTLKISRVEAEDVGVYYCAQNLELPWTFGGGTKVEIK | binds
19 | H8L1 (antibody, human IgG1, V domains shown, human IgG1 isotype) VH: QVQLVQSGAEVKKPGASVKVSCKASGYIFTSYWMHWVKQAPGQGLEWIGEIDPSDSYTNYNQKFKGRVTMTLDKSTSTTYMELSSLRSEDTAVYYCARGYGNYGDYWGQGTLVTVSS VL: DVVMTQSPLSLPVTPGEPASISCRSSKSLLHSNGITYLYWYLQKPGQSPQLLIYQMSNLASGVPDRFSSSGSGTDFTLKISRVEAEDVGVYYCAQNLELPWTFGGGTKVEIK | binds
20 | H5L3 (antibody, human IgG1, kappa, V domains shown, Tested as human IgG1) VH: QVQLVQSGAEVKKPGASVKVSCKASGYIFTSYWMHWVKQRPGQGLEWMGEIDPSDSYTNYNQKFKGRVTMTLDKSTSTTYMELSSLRSEDTAVYYCARGYGNYGDYWGQGTLVTVSS VL: DVVMTQSALSNPVTPGEPASISCRSSKSLLHSNGITYLYWYLQKPGQSPQLLIYQMSNLASGVPDRFSSSGSGTDFTLKISRVEAEDVGVYYCAQNLELPWTFGGGTKVEIKR | binds
